Data as given in publication PMC8631196.
These are yes or no findings as the source states them, for the method shown. In cells and extracts the contact can be indirect. Some binding calls cover weakened binding; strength is not graded here.

Target: T1, endothelial nitric oxide synthase (rat (endogenous in aorta and mesenteric vascular bed)) (UniProt Q62600)
T1 sequence: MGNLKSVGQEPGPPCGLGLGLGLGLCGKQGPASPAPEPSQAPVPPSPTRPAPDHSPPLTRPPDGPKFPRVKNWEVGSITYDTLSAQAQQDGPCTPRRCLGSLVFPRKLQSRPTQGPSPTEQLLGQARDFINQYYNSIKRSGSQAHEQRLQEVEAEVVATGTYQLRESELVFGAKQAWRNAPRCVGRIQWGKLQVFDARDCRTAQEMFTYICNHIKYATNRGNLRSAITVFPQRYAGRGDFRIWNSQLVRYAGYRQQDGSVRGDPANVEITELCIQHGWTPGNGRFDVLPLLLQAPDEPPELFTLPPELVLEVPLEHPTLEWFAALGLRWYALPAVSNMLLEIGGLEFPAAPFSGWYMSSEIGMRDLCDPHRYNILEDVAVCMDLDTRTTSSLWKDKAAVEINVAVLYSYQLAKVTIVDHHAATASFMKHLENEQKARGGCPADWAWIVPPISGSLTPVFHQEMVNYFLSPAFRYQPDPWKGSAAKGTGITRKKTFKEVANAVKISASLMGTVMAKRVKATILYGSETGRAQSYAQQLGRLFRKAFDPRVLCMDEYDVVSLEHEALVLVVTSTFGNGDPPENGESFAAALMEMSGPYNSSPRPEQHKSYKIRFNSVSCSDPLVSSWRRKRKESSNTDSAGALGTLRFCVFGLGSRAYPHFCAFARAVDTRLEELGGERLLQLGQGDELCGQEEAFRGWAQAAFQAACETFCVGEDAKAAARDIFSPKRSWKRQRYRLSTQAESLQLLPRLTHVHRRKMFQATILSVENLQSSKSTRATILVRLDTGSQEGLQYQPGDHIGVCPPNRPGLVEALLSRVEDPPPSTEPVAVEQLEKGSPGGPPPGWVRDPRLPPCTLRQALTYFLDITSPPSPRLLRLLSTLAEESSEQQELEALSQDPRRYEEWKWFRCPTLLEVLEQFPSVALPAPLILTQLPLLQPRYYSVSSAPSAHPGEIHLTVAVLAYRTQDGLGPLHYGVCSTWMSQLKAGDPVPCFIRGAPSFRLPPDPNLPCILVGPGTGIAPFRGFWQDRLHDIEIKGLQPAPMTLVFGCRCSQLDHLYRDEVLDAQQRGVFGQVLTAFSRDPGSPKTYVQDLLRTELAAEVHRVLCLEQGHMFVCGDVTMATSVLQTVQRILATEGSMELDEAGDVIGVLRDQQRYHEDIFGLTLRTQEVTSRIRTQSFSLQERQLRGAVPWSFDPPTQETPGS
Assay: co-IP; eNOS immunoprecipitated (anti-eNOS, 4°C overnight; protein A/G PLUS-agarose 3 h) from 500 μg supernatant protein of pooled thoracic aorta or mesenteric bed lysed in 2% octyl-D-glucoside buffer; six washes in Tris-buffer; Cav-1 detected by Western blot; non-pregnant and pregnant Wistar rats and SHR

binding: binds
B1: caveolin-1 (protein, UniProt P41350 1-178)
chain: MSGGKYVDSEGHLYTVPIREQGNIYKPNNKAMADEVNEKQVYDAHTKEIDLVNRDPKHLNDDVVKIDFEDVIAEPEGTHSFDGIWKASFTTFTVTKYWFYRLLSTIFGIPMALIWGIYFAILSFLHIWAVVPCIKSFLIEIQCISRVYSIYVHTFCDPLFEAIGKIFSNIRISTQEEI
